Paper doi:10.1101/2020.11.24.395905
These are yes or no findings as the source states them, for the method shown. In cells and extracts the contact can be indirect. Some binding calls cover weakened binding; strength is not graded here. Sequences can lack the tags named with a protein.

Target: T1, Orco:GFP (odour receptor coreceptor fused to GFP) (Drosophila) (UniProt Q9VNB5)
T1 sequence: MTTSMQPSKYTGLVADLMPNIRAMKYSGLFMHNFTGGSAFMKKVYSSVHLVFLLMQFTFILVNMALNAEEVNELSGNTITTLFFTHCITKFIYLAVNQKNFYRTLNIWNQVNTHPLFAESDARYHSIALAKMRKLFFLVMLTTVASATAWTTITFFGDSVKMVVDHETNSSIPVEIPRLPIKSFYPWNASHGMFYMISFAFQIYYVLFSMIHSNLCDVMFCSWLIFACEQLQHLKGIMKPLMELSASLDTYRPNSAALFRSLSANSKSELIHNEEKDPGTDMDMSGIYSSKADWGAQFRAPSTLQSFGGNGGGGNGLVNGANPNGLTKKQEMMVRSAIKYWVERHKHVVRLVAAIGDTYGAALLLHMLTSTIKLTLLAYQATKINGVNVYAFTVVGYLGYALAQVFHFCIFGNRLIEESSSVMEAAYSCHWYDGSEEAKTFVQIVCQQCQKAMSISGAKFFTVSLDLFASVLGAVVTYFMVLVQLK
Assay: co-IP

- binding: binds
B1: KLP68D (kinesin-2β motor subunit) (protein, UniProt P46867 1-784)
chain: MSAKSRRPGTGSSQTPNECVQVVVRCRPMSNRERSERSPEVVNVYPNRGVVELQNVVDGNKEQRKVFTYDAAYDASATQTTLYHEVVFPLVSSVLEGFNGCIFAYGQTGTGKTFTMEGVRGNDELMGIIPRTFEQIWLHINRTENFQFLVDVSYLEIYMEELRDLLKPNSKHLEVRERGSGVYVPNLHAINCKSVEDMIKVMQVGNKNRTVGFTNMNEHSSRSHAIFMIKIEMCDTETNTIKVGKLNLIDLAGSERQSKTGASAERLKEASKINLALSSLGNVISALAESSPHVPYRDSKLTRLLQDSLGGNSKTIMIANIGPSNYNYNETLTTLRYASRAKSIQNQPIKNEDPQDAKLKEYQEEIERLKRLIGPQQQQRSEKQVTAKKQRVKKPKKETVTKEMSDSLQVSTIEQPVEDDSDPEGAESESDKENEAEVAKSNEELERERVENSKLAAKLAELEGQLVRGGKNLLDTYSERQIELEKKLVEIAERKKREIEIQQQLELQEETTLEIRERNVSLEQEVELKKRKLSKCYAKYLALQQELNDCKSDHNQDLRELEMAQNELVKELKRQLLIIDNFVPIEVKQRLYTQAKYDEEQEEWKFSSMSLPTPPGGDGKFSSKRPVSHPQRRRPTSEYALQEAKSNSPSSLRFKSENIVNYELEMPCRTTQEYRTPKVSASLQAVLAQAMQTGGDDIDIVDSHTNSLRSRLENIINANANGGAGPGAGVAVGSSIPNVRNIKSSRGLPSAASNLDSNRRPPTGRLPAKKPASAYPKARGLVNK
